Laboratory results reported in PubChem BioAssay AID1347423 (Functional Genomics Laboratory (NCATS/FGL), 2020).
The whole screen tested about 52,000 sequences, of which about 210 (0.4%) were called active.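 Rule for the calls: active = gene whose silencing raises cell survival under the drug, median off-target-corrected z-score across its silencing RNAs 2 or more; inactive = the rest.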 The list shows a part of the results.

Assay: Resistance to Poly (ADP-Ribose) Polymerase inhibitor: Gene Identification via Genome-wide siRNA Screen
Settings: mouse BRCA2 R2336H ES cells, olaparib, CellTiter-Glo viability; active compounds read high
Outline: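 Genome-wide siRNA screen (3 siRNAs/gene, 20 nM) in mouse ES cells carrying hypomorphic BRCA2 R2336H; olaparib 500 nM added 48 h post-transfection, CellTiter-Glo viability 72 h later. Normalized to plate-median negative control; MAD z-scores, gene median, seed-adjusted.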
With GGUAAAUGAGAAAAACCUCTT against Gda the z-score was inactive: -0.0873. For GGGCUUGGCAUACUCCUAATT against Ebf4, the z-score was inactive: -0.125. With GGAUAACCAACAAGGUUUUTT against Mgst1 the z-score was inactive: 2.04. In the case of CGGCACUAGGAAGCUUUUATT against Inpp5a, the z-score is reported as inactive: -1.26. For GCCAGGUCCUCAAAUGAAATT against Wbscr24, the z-score was inactive: 0.399. For GGAUGUGGUUUUACAUCUGTT against Lrp11, the z-score was inactive: 0.56. In the case of AUGGACAGGACUUAGAUUCTT against LOC435023, the z-score is reported as inactive: -0.328. For GGAGGUACCAUGCUAUGCATT against Igf2r, the z-score was inactive: 1.27. For “GCAAGAUGAGAAGGAUUUUTT against 6430544H17Rik”, the z-score was inactive: 1.05. For GGUCAUAGAGACAGACUACTT against Lcn12, the z-score was inactive: -2.06. In the case of “CCAAGUCGGACUUACGGUUTT against 1600025D17Rik”, the z-score is reported as inactive: -0.231. For CCCACAAUGCUGCUAUUAUTT against Gmfb, the z-score was inactive: -1.92. With GCUCUUAGAGAUUUGUUUGTT against Usp14 the z-score was inactive: -0.185. In the case of “GGAUUGCCUCACGGUUGCUTT against 9130416N05Rik”, the z-score is reported as inactive: -1.79. In the case of GGGUUAUCUAUGCAAAUCCTT against Odc1, the z-score is reported as inactive: 0.574. For GCUGAUUCAAAACCAGGCATT against Nme2, the z-score was inactive: 0.681. For CCAUGAGCAUAGUUAUCAGTT against Ankib1, the z-score was inactive: 0.645. In the case of “CGACAACAUUCGGAGAGGATT against 2700063A19Rik”, the z-score is reported as inactive: -0.914. With “GGAGAAUGAAGAUGAAUGUTT against 4930424G05Rik” the z-score was inactive: -0.0136. With “GGGAAAGGCAUUUAUUUUCTT against 1810030J14Rik” the z-score was inactive: 0.404. In the case of “GGAACCCUGAACUUGAACGTT against 9530025L16Rik”, the z-score is reported as inactive: -0.307. In the case of GGGACAACAUUUUCUUGCCTT against Ms4a6b, the z-score is reported as inactive: 0.447. For GGAGAGGAACAGGAACAGATT against Ankrd9, the z-score was inactive: -0.431. In the case of “GGUGGACUGGAUCUGAAUGTT against 5830433M19Rik”, the z-score is reported as inactive: 1.09. For GGAAGCCAAAGAGAAACAATT against Ighmbp2, the z-score was inactive: -1.08. With “CCCAUAGACAUUUAUGUAATT against D17H6S56E-5” the z-score was inactive: 0.0893. With GGCUUUGAAACAUAAGAACTT against Zfp472 the z-score was inactive: 0.702. For CGGCAGCUUGAAAUUACUGTT against Stx3, the z-score was inactive: 1.85. In the case of GCGAUUACUACUUGAAACUTT against Fa2h, the z-score is reported as inactive: -0.348. In the case of GCUAAUAGGGUGCUUUAAUTT against Rab33b, the z-score is reported as inactive: 0.418. With GGGAGACAUCCCGAUACAGTT against Mlf2 the z-score was inactive: -0.941. For “GAUAUAAGGACUCUUUGAATT against 4732486J07Rik”, the z-score was inactive: -0.212. In the case of GCGGCACACCCUUAUUACATT against Zfp162, the z-score is reported as inactive: -1.15. For CCCUGCUUACGAUUGAUAGTT against Ccr1l1, the z-score was inactive: -2.4. For GGAAGAACAGAGGCAGAAGTT against Trpv3, the z-score was inactive: -1.15. With GCGUGAAUCCGAUCCAACUTT against Spag5 the z-score was inactive: -1.36. With GCGACACGUCUCCAGAUGATT against Pldn the z-score was inactive: -1.55. With GGUUCAGAUCCACAGCCAGTT against Accn1 the z-score was inactive: 0.543. For GGAGAUACAGAUGAAUGAATT against Apg16l, the z-score was inactive: -1.33. For GCCAGUGGUGUUUGCAUAGTT against Scrn1, the z-score was inactive: -1.07. In the case of GGAGAAUUGCCCAUCUUUGTT against Ankrd32, the z-score is reported as inactive: -0.208. In the case of GCCUUCAGGACGAUUUAUUTT against Pla2g7, the z-score is reported as inactive: 0.423. In the case of “GGAAGGAAGGAAUAAAACUTT against D930001I22Rik”, the z-score is reported as inactive: -0.647. With CCGGAGAUAUAUCAAUAUUTT against Pcdhga3 the z-score was inactive: 0.409. With GGGUGACAGUGAUAUCCAGTT against Mc1r the z-score was inactive: -0.664. With “GCAAAAUUACCAGCUUACUTT against 5730589K01Rik” the z-score was inactive: 0.133. For CCUGUCCAGGGUUUGACCATT against Man2c1, the z-score was inactive: 0.0847. With GGAUUUUCAUCGUGCUUUGTT against Apba2bp the z-score was inactive: -0.319. With “GCUUAUAAGAGAAAUGACUTT against 4921511C20Rik” the z-score was inactive: -1.15. For CGAGCUCCUUCAUAUUAAATT against Rapgef4, the z-score was inactive: 0.164. For GGCAAGAAGUAGGAAGACUTT against Nucb2, the z-score was inactive: -1.92. In the case of CUUUGAUGAUAUUGCUGCUTT against Olfr849, the z-score is reported as inactive: -1.26. In the case of GGAUUAAUCAAACUGAGAGTT against Lrrtm2, the z-score is reported as inactive: -0.795. In the case of CCUGGCAUAAGUGGUUUUATT against Zfp82, the z-score is reported as inactive: 3.06. In the case of GGAACUCACACAGAACCAATT against Pldn, the z-score is reported as inactive: -0.949. With GGAUGAUGACGACAUUGAUTT against Eef1b2 the z-score was inactive: -1.74. In the case of GGAAUGCCGGAUUGCUCACTT against BC008163, the z-score is reported as inactive: 1.25. For GGUUGUGUCAAUAAAAACATT against Dusp2, the z-score was inactive: 1.79. With CCAAAUAACCUGCUACGAGTT against Gpr43 the z-score was inactive: 0.874. With GGGUUGUGUCUGAAGAGAATT against Phf17 the z-score was inactive: -0.948. For GGUCAAGUCACUGGUGACGTT against Fabp3, the z-score was inactive: -1.23. With GGGACAGACUGAAAAAUUCTT against Pde4d the z-score was inactive: 1.28. With GGGCUCAUCCUUAAAGAUUTT against Jarid1c the z-score was inactive: 0.903. With GGUGCCAAUCAUUGUUAUGTT against Kcnv1 the z-score was inactive: 1.05. For GCGAAGUCAUCAAAUUUUCTT against Abcb11, the z-score was inactive: 0.966. For ACUACAUUACCAGAAGACATT against Olfr1178, the z-score was inactive: 0.405.
